Reference: paper doi:10.1101/2021.01.14.426738
No constants are given. Whether binding was seen depends on the method and setting. Binding seen in cells or lysates may run through a third protein. Some results given as binding are weak or reduced against the parent protein; the word gives no strength. For part of these data: Sequences can lack the tags named with a protein. Blank lines part the entries; values can stand above or below the molecule they belong to.

The chains behind the UniProt entries cited, without tags or fusion partners.
UniProt P38159: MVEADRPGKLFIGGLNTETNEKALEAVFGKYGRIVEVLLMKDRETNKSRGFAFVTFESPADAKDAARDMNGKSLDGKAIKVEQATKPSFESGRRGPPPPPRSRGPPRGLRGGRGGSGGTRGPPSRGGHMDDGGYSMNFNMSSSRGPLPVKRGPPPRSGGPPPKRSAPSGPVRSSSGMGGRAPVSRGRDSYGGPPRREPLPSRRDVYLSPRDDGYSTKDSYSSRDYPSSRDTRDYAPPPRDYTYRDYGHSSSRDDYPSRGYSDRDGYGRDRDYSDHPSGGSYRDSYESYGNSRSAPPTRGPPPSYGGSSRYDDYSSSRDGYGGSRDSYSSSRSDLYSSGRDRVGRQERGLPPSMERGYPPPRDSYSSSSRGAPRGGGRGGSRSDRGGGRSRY
UniProt O15392: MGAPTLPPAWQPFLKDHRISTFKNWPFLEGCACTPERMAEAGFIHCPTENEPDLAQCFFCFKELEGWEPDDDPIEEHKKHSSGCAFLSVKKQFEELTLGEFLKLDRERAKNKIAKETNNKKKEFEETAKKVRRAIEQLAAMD
UniProt Q9NQS7: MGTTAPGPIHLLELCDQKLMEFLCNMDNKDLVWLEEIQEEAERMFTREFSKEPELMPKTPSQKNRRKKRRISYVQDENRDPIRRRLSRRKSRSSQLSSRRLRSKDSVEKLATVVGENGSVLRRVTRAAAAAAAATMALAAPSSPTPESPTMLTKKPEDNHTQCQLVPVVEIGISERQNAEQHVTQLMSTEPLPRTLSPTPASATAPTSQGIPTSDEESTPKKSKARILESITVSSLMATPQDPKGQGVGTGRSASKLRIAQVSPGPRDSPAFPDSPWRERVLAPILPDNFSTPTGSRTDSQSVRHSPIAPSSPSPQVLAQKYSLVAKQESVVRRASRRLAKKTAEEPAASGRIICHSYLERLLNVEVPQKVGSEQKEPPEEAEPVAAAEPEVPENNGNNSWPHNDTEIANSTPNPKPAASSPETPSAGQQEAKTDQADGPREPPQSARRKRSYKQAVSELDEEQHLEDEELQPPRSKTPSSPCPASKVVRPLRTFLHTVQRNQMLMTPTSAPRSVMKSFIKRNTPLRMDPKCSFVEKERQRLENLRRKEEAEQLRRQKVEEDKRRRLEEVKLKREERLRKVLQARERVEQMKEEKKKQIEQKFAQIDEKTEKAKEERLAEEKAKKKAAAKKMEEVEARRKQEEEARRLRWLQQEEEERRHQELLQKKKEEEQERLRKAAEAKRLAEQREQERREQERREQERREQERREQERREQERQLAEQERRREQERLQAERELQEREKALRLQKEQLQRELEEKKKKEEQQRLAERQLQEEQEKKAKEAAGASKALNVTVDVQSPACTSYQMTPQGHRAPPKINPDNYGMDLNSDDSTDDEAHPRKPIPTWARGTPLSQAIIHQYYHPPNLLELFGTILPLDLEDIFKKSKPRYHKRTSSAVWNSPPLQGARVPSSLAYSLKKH

Assays:
[1] = molecular target: RBMX (endogenous) (human (endogenous in HeLa)) (UniProt P38159); test: co-IP
[2] = molecular target: Flag-tagged RBMX (human) (UniProt P38159); test: co-IP
[3] = molecular target: Survivin (endogenous) (human (endogenous in HeLa)) (UniProt O15392); test: proximity ligation
[4] = molecular target: Aurora B (endogenous) (human (endogenous in HeLa)) (UniProt Q96GD4); test: co-IP
[5] = molecular target: T1, Borealin (endogenous) (human (endogenous in HeLa)) (UniProt Q53HL2); test: co-IP
T1 sequence: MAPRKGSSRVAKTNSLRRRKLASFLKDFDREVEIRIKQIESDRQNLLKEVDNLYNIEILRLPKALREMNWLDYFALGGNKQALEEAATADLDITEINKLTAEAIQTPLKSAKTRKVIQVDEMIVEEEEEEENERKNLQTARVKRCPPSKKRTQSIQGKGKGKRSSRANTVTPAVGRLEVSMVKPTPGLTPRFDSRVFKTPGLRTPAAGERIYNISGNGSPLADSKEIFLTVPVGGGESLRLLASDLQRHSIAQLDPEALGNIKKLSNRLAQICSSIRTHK

[6] = molecular target: T2, Borealin (endogenous) (human (endogenous in HeLa)), Q53HL2; test: co-IP; conditions: remark: other sources report otherwise
T2 chain: T1 sequence

Molecule: Aurora B (endogenous) (from UniProt Q96GD4 1-344) (enzyme)
binding [1]: binds

Molecule: HA-tagged INCENP (from UniProt Q9NQS7 1-918)
binding [2]: binds

Molecule: HA-tagged Survivin (from UniProt O15392 1-142)
binding [2]: binds

Molecule: LAP-RBMX (from UniProt P38159 1-391)
binding [3]: binds

The remaining lines, values ahead:

binding [2]: binds
Molecule: HA-tagged Aurora-B (from UniProt Q96GD4 1-344) (enzyme)

binding [4]: binds
binding [5]: binds
Molecule: RBMX (endogenous) (from UniProt P38159 1-391)

binding [6]: binds
B1: Aurora B (endogenous), Q96GD4 1-344 (enzyme)
chain: MAQKENSYPWPYGRQTAPSGLSTLPQRVLRKEPVTPSALVLMSRSNVQPTAAPGQKVMENSSGTPDILTRHFTIDDFEIGRPLGKGKFGNVYLAREKKSHFIVALKVLFKSQIEKEGVEHQLRREIEIQAHLHHPNILRLYNYFYDRRRIYLILEYAPRGELYKELQKSCTFDEQRTATIMEELADALMYCHGKKVIHRDIKPENLLLGLKGELKIADFGWSVHAPSLRRKTMCGTLDYLPPEMIEGRMHNEKVDLWCIGVLCYELLVGNPPFESASHNETYRRIVKVDLKFPASVPMGAQDLISKLLRHNPSERLPLAQVSAHPWVRANSRRVLPPSALQSVA

binding [2]: binds
B2: HA-tagged Borealin (protein, UniProt Q53HL2 1-280)
chain: T1 sequence
